# According to PubChem BioAssay AID1487 (National Center for Advancing Translational Sciences (NCATS), 2009):
# This is one part of the list. Further columns of the screen follow, without active or inactive calls. Most of these compounds were active or inconclusive in the main read-out, so they are no random draw. Potencies come from curve fits of mixed quality, noted in brackets.
# Assay: qHTS Assay for Modulators of Lamin A Splicing
# Conditions: HeLa LMNA splicing GFP/RFP minigene ratio, 48 h
# In short: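 S3 HeLa cells stably expressing lamin A-EGFP splicing minigene plus DsRed2, 600 cells/well, 48 h compound exposure at 37C. Laser-scanning cytometry; analysed as GFP (500-530 nm)/RFP (575-640 nm) total intensity ratio; 0.5% DMSO vehicle.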
# [1] = measured here: GFP splicing reporter channel
# [2] = measured here: RFP viability control channel
SMILES,AC50 [1],AC50 [2]
O=C(Cn1cnc2ccccc2c1=O)N1CCOCC1,"0.447 µM [rising, full curve, poor fit]",
CCOc1cc(CNc2ncnc3nc[nH]c23)ccc1OC,"14.1 µM [rising, single point]","17.8 µM [rising, partial curve]"
CCC(=O)OCCNc1cc(Sc2nccn2C)c2nonc2c1[N+](=O)[O-],,"7.08 µM [falling, single point]"
Cc1nn(Cc2ccc(F)cc2)c2sc(C(=O)Nc3nccs3)cc12,"1 µM [rising, full curve, poor fit]",
Cn1c(N2CCN(C(=O)Nc3ccc(F)cc3)CC2)nc2ccccc21,,"14.1 µM [rising, single point]"
COc1ccc(CCNC(=O)CSc2nnc(-c3ccccc3)c3ccccc23)cc1OC,,"1.41 µM [rising, full curve]"
Cc1sc(NC(=O)CSc2nnc(-c3ccccc3)o2)c(C#N)c1C,"10 µM [rising, partial curve, poor fit]","10 µM [rising, partial curve]"
CCOc1ccc(S(=O)(=O)N(CC(=O)N2CCc3ccccc32)Cc2ccco2)cc1,,"15.8 µM [rising, single point]"
COc1cc(OC)c(NS(=O)(=O)c2ccc3c(c2)NC(=O)CCS3)cc1Cl,"0.0316 µM [falling, full curve, poor fit]","0.1 µM [falling, full curve]"
O=[N+]([O-])c1ccc(OCC(O)CN2CCN(c3ccccc3F)CC2)cc1 (stereo unspecified),"35.5 µM [falling, single point]","35.5 µM [falling, single point]"
Cc1cc(C)cc(Nc2sc(C(=O)c3ccccc3)c(N)c2S(=O)(=O)c2ccccc2)c1,"31.6 µM [rising, single point]","11.2 µM [rising, single point]"
CCn1nc(C)c(/C=N/NC(=O)Cc2ccc(Cl)cc2)c1C,"7.08 µM [rising, full curve, poor fit]","15.8 µM [rising, partial curve]"
CCOC(=O)C(C(=O)OCC)C(C(=O)OCC)N1CCOCC1 (stereo unspecified),,"0.0178 µM [falling, full curve, poor fit]"
Cn1c(=O)c2c(ncn2CC(COCc2ccc(Cl)cc2)OCc2ccc(Cl)cc2)n(C)c1=O (stereo unspecified),,"35.5 µM [rising, single point]"
CCCOc1cccc(-c2cc(-c3n[nH]c(=S)n3CC)c3ccccc3n2)c1,"25.1 µM [falling, single point]","35.5 µM [falling, single point]"
N/C(Cc1ccc(Cl)c(Cl)c1)=N\OC(=O)c1cccs1,"22.4 µM [falling, single point]","22.4 µM [falling, single point]"
CCc1ccccc1NCC(=O)Nc1ccc(Cl)c(C(F)(F)F)c1,,"35.5 µM [rising, single point]"
CN(C)c1ccc(/C=N/NC(=O)c2sccc2-n2cccc2)cc1,,"31.6 µM [falling, partial curve]"
Cc1cc(C)cc(OCC(=O)NCC2(N(C)C)CCCCC2)c1,"0.447 µM [falling, full curve, poor fit]","0.0316 µM [falling, full curve, poor fit]"
COCC(C)n1c(SCC(=O)NNC(=O)c2ccccc2)nc2ccccc2c1=O (stereo unspecified),,"0.0891 µM [falling, full curve, poor fit]"
O=C1CC(c2ccccc2Cl)=NN(c2ncnc3ccccc23)C1=O,,"22.4 µM [falling, single point]"
O=C(Cc1ccc(Cl)cc1)NCCS(=O)c1ccc(Cl)cc1 (stereo unspecified),"5.62 µM [falling, single point]","0.02 µM [falling, full curve, poor fit]"
Cc1ccccc1C(=O)OC1OC(=O)C(Cl)=C1Nc1ccccc1 (stereo unspecified),"0.891 µM [falling, full curve, poor fit]","17.8 µM [rising, single point]"
O=C(Nc1ccccc1C(=O)NCc1ccco1)Nc1cccc2ccccc12,"35.5 µM [rising, single point]",
NC(=O)c1ccc(NCc2ccco2)c([N+](=O)[O-])c1,"0.0355 µM [rising, single point]","0.794 µM [rising, single point]"
CCC1CN(C(=O)Nc2cc(C)cc(C)c2)c2ccccc2O1 (stereo unspecified),"7.94 µM [falling, partial curve, poor fit]",
COc1cc(NC(=O)c2ccccc2NS(=O)(=O)c2ccc(Cl)s2)cc(OC)c1,"1.41 µM [rising, partial curve, poor fit]","3.16 µM [rising, partial curve]"
COc1cccc(-n2c(SCc3ccccc3C)nc3c([nH]c4ccccc43)c2=O)c1,"25.1 µM [falling, partial curve, poor fit]","35.5 µM [falling, single point]"

# Complete entries, quoted from the list.
# `Cc1cc(C)cc(Nc2sc(C(=O)c3ccccc3)c(N)c2S(=O)(=O)c2ccccc2)c1` in the list: AC50 [1]: 31.6 µM [rising, single point]; AC50 [2]: 11.2 µM [rising, single point]
# `COc1ccc(CCNC(=O)CSc2nnc(-c3ccccc3)c3ccccc23)cc1OC` in the list: AC50 [2]: 1.41 µM [rising, full curve]
# `COc1cc(NC(=O)c2ccccc2NS(=O)(=O)c2ccc(Cl)s2)cc(OC)c1` in the list: AC50 [1]: 1.41 µM [rising, partial curve, poor fit]; AC50 [2]: 3.16 µM [rising, partial curve]
# `CCC(=O)OCCNc1cc(Sc2nccn2C)c2nonc2c1[N+](=O)[O-]` in the list: AC50 [2]: 7.08 µM [falling, single point]

# More entries:

SMILES,AC50 [1],AC50 [2]
CCCC(=O)NC(c1ccc(OC)cc1)c1ccc2cccnc2c1O (stereo unspecified),"3.98 µM [falling, full curve]",
O=C(C1CC1)N1CCN(c2nc3ccc(F)cc3s2)CC1,"0.00316 µM [falling, full curve, poor fit]","0.00316 µM [falling, full curve, poor fit]"
CCCCn1c(N)c(NCCC)c(=O)[nH]c1=O,,"1 µM [rising, partial curve]"
COc1ccc(C(CC(=O)c2ccc(C)cc2)Nc2ccc([N+](=O)[O-])cc2)cc1 (stereo unspecified),,"20 µM [rising, single point]"
CCc1cc(C(=O)c2ccccc2OC)c(N)s1,"31.6 µM [rising, single point]","31.6 µM [rising, single point]"
CCCCOc1ccc(CNC(=O)c2cnc3sc(N4CCOCC4)nn3c2=O)cc1,"0.316 µM [rising, full curve, poor fit]",
Cc1cc(N2CCC(C)CC2)n2ncc(-c3ccccc3)c2n1,,"12.6 µM [rising, partial curve]"
Cc1cccc(NC(=S)NCCc2ccc3c(c2)OCCO3)c1C,"0.891 µM [rising, single point]",
O=C(O)CCc1nc2cccnc2n1Cc1ccccc1,,"0.708 µM [falling, full curve, poor fit]"
Fc1ccc(-n2ncc3c(SCc4cccnc4)ncnc32)cc1,,"0.0251 µM [rising, full curve, poor fit]"
COc1ccc(-c2cnnn2-c2ccc(NC(=O)c3c(F)cccc3F)cc2)cc1,"0.0398 µM [falling, full curve]",
COc1ccc(CNS(=O)(=O)c2ccc3c(c2)CCN3C(=O)C2CC2)cc1,"20 µM [rising, partial curve, poor fit]","15.8 µM [rising, partial curve]"
O=C(C1CCCO1)N1CCN(C(=S)Nc2ccccc2C(F)(F)F)CC1 (stereo unspecified),,"35.5 µM [rising, single point]"
O=C1C2C3C=CC(C3)C2C(=O)N1/N=C/c1ccc(-c2ccccc2[N+](=O)[O-])o1 (stereo unspecified),,"20 µM [rising, single point]"
COc1cccc(Oc2nc(-c3ccncc3)nc3ccccc23)c1,,"1 µM [falling, single point]"
COC(=O)c1ccc(-c2noc(CN(C)CCC3CCCCO3)n2)cc1 (stereo unspecified),,"35.5 µM [falling, single point]"
O=S(=O)(NC1c2cccc3cccc(c23)C1N1CCN(CCO)CC1)c1ccccc1 (stereo unspecified),,"10 µM [rising, partial curve]"
CC(C)c1ccc(NC(=O)c2cc(S(=O)(=O)NCC3COc4ccccc4O3)ccc2F)cc1 (stereo unspecified),"35.5 µM [falling, single point]",
Cc1ccc(S(=O)(=O)NCCSc2nnnn2-c2cc(C)ccc2C)cc1,"15.8 µM [rising, partial curve, poor fit]","25.1 µM [rising, single point]"
O=C(CCNc1ccccc1)c1ccc2c(c1)OCO2,"11.2 µM [rising, partial curve, poor fit]","11.2 µM [rising, partial curve]"
COC(=O)C1=C(C)N(Cc2ccc(C)cc2)C(=O)/C1=C\c1ccc(O)c(OC)c1,"7.08 µM [rising, partial curve, poor fit]","10 µM [rising, partial curve, poor fit]"
COc1ccccc1-c1ccc(SCc2cccc(F)c2)nn1,"0.00355 µM [rising, full curve, poor fit]",
O=C(Cc1cccs1)N1CCN(S(=O)(=O)c2ccc(Br)cc2)CC1,"31.6 µM [rising, single point]","35.5 µM [rising, single point]"
Cc1ccc(Cn2ccc(NC(=O)c3cc(-c4ccc(F)cc4)on3)n2)cc1,"3.55 µM [rising, full curve, poor fit]",
CCCOc1ccc(-c2nnn(CC(=O)N3CCC(C)CC3)n2)cc1,,"17.8 µM [rising, single point]"
Cc1ccc(C(=O)COC(=O)c2ccc3c(c2)C(=O)N(c2cccc4ncccc24)C3=O)cc1C,,"22.4 µM [falling, partial curve, poor fit]"
CC(C)N(C(=O)N1CCC(c2nc(-c3ccncc3)no2)CC1)C(C)C,,"15.8 µM [rising, partial curve, poor fit]"
